Tests used:
Format in all cases: cell-based
[1] = tested on: panel of 8 lymphoma cell lines; experiment: Cell viability (ATP) in a panel of 8 lymphoma cell lines; settings: ATP endpoint assay, read-out: EC50 values (range over the panel)
Description: (§1) EC50 values for percentage viability (3-day exposure) were determined using 2 different methods, trypan blue staining and an ATP assay. Trypan blue staining relies on the ability of healthy cells with intact membranes to exclude dyes. As cells start to undergo programmed cell death membrane integrity becomes compromised allowing dye entry. The % cells staining positive for trypan blue relative to the total cell number therefore reflects % cell viability (% viability). Non-viable cells also lose the ability to regenerate ATP. A specific ATP assay procedure using a 96-well plate-based approach (Vialite assay, Cambrex, UK) also measures cell viability, expressed relative to the ATP value in the control (untreated) cell population.

[2] = tested on: MCF7 (breast cancer) cells; experiment: Cell viability, 3-day exposure, MCF7 cells; settings: Homo sapiens, 72 h, 3 day incubation, FIG. 3
Description: as §1

[3] = tested on: HCT116 (colorectal cancer) cells; experiment: Cell viability, 3-day exposure, HCT116 cells; settings: Homo sapiens, HCT-116, 72 h, 3 day incubation, FIG. 3
Description: as §1

CEM (leukaemic) cells = experiment: Cell viability / cytotoxic activity, ATP Vialite assay, CEM cells; settings: Homo sapiens, CCRF-CEM
Description: as §1
Effects against viable cell number have been determined using the ATP Vialite kit method (Cambrex, UK).

Work on O=C(CCCCCCC(=O)Nc1ccccc1)NO [SAHA, suberoylanilide hydroxamic acid, reference compound] yielded an EC50 [1] of 760 to 1280 nM, an EC50 [2] of 1900 nM and an EC50 [3] of 1000 nM. The EC50 (CEM (leukaemic) cells; 72 h, CEM cells, 3 day incubation, FIG. 3) was 1700 nM and the IC50 (CEM (leukaemic) cells; cytotoxic activity against CEM (leukaemic) cells, viable cell number, ATP Vialite kit, read-out: HDAC inhibitory IC50) was 1300 ± 290 nM.
